Assay results as given in article PMC8156982, “DNA Aptamers against Vaccinia-Related Kinase (VRK) 1 Block Proliferation in MCF7 Breast Cancer Cells”.

Biological target: T1, VRK1 (vaccinia-related kinase 1), recombinant (UniProt Q99986)
T1 sequence (looked up, limits assumed): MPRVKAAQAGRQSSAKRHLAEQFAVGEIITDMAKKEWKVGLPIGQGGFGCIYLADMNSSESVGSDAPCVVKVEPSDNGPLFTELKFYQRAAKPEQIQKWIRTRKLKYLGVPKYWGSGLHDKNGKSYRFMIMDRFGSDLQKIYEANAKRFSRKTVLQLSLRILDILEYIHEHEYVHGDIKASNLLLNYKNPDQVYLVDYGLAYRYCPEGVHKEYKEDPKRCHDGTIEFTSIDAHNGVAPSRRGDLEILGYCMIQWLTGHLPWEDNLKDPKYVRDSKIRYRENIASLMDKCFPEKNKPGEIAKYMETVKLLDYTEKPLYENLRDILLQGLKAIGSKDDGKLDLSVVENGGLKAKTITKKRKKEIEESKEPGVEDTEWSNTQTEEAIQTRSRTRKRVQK
Assay: ELONA
Conditions: 40 nM PCR-labeled chain; 10 mM sodium phosphate, 0.15 M NaCl, pH 7.5, 1 mM MgCl2, 0.2% BSA; 37 C, 1 h; aptamers denatured at 95 C 10 min then ice 10 min; VRK1 coated on plate (20 or 200 ng/well); recombinant protein; protein details: 6xHis; label: 5' digoxigenin; single-stranded DNA; letters put together from the description

Binding result, binds more weakly:
TCACCAGCACGTCCATGAGGGCACTTCCCACCCTACCCACCCCCCACCTCGCAACCTGTAGTGGCATCCGAGCGT [apVRKR33 (V#R33)]
TCACCAGCACGTCCATGAGGCCGCCGACCCCCCGCTTACTTTCCCCCCCCCTCCCTGTAGTGGCATCCGAGCGT [apVRKR8 (V#R8)]

Same assay, conditions: 40 nM synthetic aptamer; 10 mM sodium phosphate, 0.15 M NaCl, pH 7.5, 1 mM MgCl2, 0.2% BSA; 37 C, 1 h; aptamers denatured at 95 C 10 min then ice 10 min; VRK1 coated on plate (20 or 200 ng/well); recombinant protein; protein details: 6xHis; label: digoxigenin (5' when made with primer R5); single-stranded DNA; letters put together from the description

Binding result, binds more weakly:
TCACCAGCACGTCCATGAGGCAAGAAACCCACCCACCGCCCCCATCCGCCGTCCCTGTAGTGGCATCCGAGCGT [apVRKR28 (V#R28)]

Same assay, conditions: 80 nM; 10 mM sodium phosphate, 0.15 M NaCl, pH 7.5, 1 mM MgCl2, 0.2% BSA; 37 C, 1 h; aptamers denatured at 95 C 10 min then ice 10 min; VRK1 coated on plate (20 or 200 ng/well); recombinant protein; protein details: 6xHis; label: 5' digoxigenin on both chains

Binding result, binds more weakly:
ACGCTCGGATGCCACTACAGGAGGGCGGGTGGGGGGGGGCTGGCGGTGGTCTGGCCTCATGGACGTGCTGGTGA (double strand) [apVRK27 (F+R chains)]
ACGCTCGGATGCCACTACAGGGGGCGTGGGATGCCACATTCTTTAAGTTGGGTGCCTCATGGACGTGCTGGTGA (double strand) [apVRK41 (F+R chains)]
ACGCTCGGATGCCACTACAGCCCTAATCTGTCGCTTTGATTTTTTTTACCTCTGCCTCATGGACGTGCTGGTGA (double strand) [apVRK42 (F+R chains)]
ACGCTCGGATGCCACTACAGGGGGCAGGGATGGAAAGTAAGATGTGTGAGGCTGCCTCATGGACGTGCTGGTGA (double strand) [apVRK44 (F+R chains)]
ACGCTCGGATGCCACTACAGCGAGTACGTTGAACTTATCTCATCCCTTCTTTTGCCTCATGGACGTGCTGGTGA (double strand) [apVRK13 (F+R chains)]
ACGCTCGGATGCCACTACAGCCCATGAATGTTTCCTTAGTTACGCATTTCTTCGCCTCATGGACGTGCTGGTGA (double strand) [apVRK21; 22 (F+R chains)]

The exact form of at least one protein or probe is not confirmed. The comparison behind a weaker result is the experiment's own reference, which may not be listed here. At least one verdict rests on a figure or table, not on a statement of the authors. Tags and fusion partners may be left off the protein sequences shown.
